Data published in publication doi:10.1101/2021.12.10.472131 (bioRxiv, 2021).
Results are given in words; binding and its absence hold for the method and conditions named. Some entries that bind do so weakly or less than the wild type. For some assays here: Tags and fused reporters may be left off the sequences shown.

T1: Par-3 PDZ1-APM (residues 309-987) (UniProt O96782)
T1 sequence: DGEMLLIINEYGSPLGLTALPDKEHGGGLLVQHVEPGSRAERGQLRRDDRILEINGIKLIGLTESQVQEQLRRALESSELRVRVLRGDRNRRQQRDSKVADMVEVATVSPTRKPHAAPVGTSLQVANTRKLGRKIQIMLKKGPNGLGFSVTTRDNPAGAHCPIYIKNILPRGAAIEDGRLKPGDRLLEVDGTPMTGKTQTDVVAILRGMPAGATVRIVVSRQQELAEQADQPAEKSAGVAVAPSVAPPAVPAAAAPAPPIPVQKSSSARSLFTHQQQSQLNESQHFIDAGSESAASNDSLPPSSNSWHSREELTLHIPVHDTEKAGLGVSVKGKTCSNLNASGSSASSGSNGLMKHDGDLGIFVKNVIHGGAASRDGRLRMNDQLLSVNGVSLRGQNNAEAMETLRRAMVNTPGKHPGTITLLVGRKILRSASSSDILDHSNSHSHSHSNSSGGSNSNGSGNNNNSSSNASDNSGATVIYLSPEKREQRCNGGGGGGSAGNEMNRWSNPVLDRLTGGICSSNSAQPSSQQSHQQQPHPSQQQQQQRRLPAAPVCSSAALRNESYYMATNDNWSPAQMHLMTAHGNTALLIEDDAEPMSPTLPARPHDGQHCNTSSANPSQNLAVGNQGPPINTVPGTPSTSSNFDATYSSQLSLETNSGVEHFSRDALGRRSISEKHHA

T2: his-Par-6 (UniProt O97111)
T2 sequence: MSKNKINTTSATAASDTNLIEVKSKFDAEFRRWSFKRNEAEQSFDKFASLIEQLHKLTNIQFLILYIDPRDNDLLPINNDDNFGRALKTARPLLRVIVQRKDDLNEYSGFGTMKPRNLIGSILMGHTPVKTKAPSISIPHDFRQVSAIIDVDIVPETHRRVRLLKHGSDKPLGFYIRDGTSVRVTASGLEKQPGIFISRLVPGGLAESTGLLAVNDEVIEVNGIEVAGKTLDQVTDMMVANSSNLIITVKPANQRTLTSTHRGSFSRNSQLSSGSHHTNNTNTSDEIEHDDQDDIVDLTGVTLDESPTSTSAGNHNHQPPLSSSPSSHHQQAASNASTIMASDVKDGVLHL


Legend:
[1] = biological target: T1, Par-3 PDZ1-APM (residues 309-987); assay: supernatant depletion assay
his-Par-6 = biological target: T2, his-Par-6; assay: co-purification

binding [1] | binding (his-Par-6) | Binder
binds | – | Par complex (Par-6 and atypical Protein Kinase C, aPKC) (complex, UniProt A1Z9X0 1-606; O97111 1-351) chain 1: MQKMPSQILNDGSSVSLNSASMNMANTPNSITVKTAYNGQIIITTINKNISYEELCYEIRNICRFPLDQPFTIKWVDEENDPCTISTKMELDEAIRLYEMNFDSQLVIHVFPNVPQAPGLSCDGEDRSIYRRGARRWRKLYRVNGHIFQAKRFNRRAFCAYCQDRIWGLGRQGFKCIQCKLLVHKKCHKLVQKHCTDQPEPLVKERAEESSDPIPVPLPPLPYEAMSGGAEACETHDHAHIVAPPPPEDPLEPGTQRQYSLNDFELIRVIGRGSYAKVLMVELRRTRRIYAMKVIKKALVTDDEDIDWVQTEKHVFETASNHPFLVGLHSCFQTPSRLFFVIEFVRGGDLMYHMQRQRRLPEEHARFYAAEISLALNFLHEKGIIYRDLKLDNVLLDHEGHIKLTDYGMCKEGIRPGDTTSTFCGTPNYIAPEILRGEDYGFSVDWWALGVLLYEMLAGRSPFDLAGASENPDQNTEDYLFQVILEKTIRIPRSLSVRAASVLKGFLNKNPADRLGCHRESAFMDIVSHPFFKNMDWELLERKQVTPPFKPRLDSDRDLANFPPEFTGEAVQLTPDDDHVIDNIDQSEFEGFEYVNPLLMSLEDCV chain 2: MSKNKINTTSATAASDTNLIEVKSKFDAEFRRWSFKRNEAEQSFDKFASLIEQLHKLTNIQFLILYIDPRDNDLLPINNDDNFGRALKTARPLLRVIVQRKDDLNEYSGFGTMKPRNLIGSILMGHTPVKTKAPSISIPHDFRQVSAIIDVDIVPETHRRVRLLKHGSDKPLGFYIRDGTSVRVTASGLEKQPGIFISRLVPGGLAESTGLLAVNDEVIEVNGIEVAGKTLDQVTDMMVANSSNLIITVKPANQRTLTSTHRGSFSRNSQLSSGSHHTNNTNTSDEIEHDDQDDIVDLTGVTLDESPTSTSAGNHNHQPPLSSSPSSHHQQAASNASTIMASDVKDGVLHL
– | binds | atypical Protein Kinase C (aPKC) (enzyme, UniProt A1Z9X0 1-606) MQKMPSQILNDGSSVSLNSASMNMANTPNSITVKTAYNGQIIITTINKNISYEELCYEIRNICRFPLDQPFTIKWVDEENDPCTISTKMELDEAIRLYEMNFDSQLVIHVFPNVPQAPGLSCDGEDRSIYRRGARRWRKLYRVNGHIFQAKRFNRRAFCAYCQDRIWGLGRQGFKCIQCKLLVHKKCHKLVQKHCTDQPEPLVKERAEESSDPIPVPLPPLPYEAMSGGAEACETHDHAHIVAPPPPEDPLEPGTQRQYSLNDFELIRVIGRGSYAKVLMVELRRTRRIYAMKVIKKALVTDDEDIDWVQTEKHVFETASNHPFLVGLHSCFQTPSRLFFVIEFVRGGDLMYHMQRQRRLPEEHARFYAAEISLALNFLHEKGIIYRDLKLDNVLLDHEGHIKLTDYGMCKEGIRPGDTTSTFCGTPNYIAPEILRGEDYGFSVDWWALGVLLYEMLAGRSPFDLAGASENPDQNTEDYLFQVILEKTIRIPRSLSVRAASVLKGFLNKNPADRLGCHRESAFMDIVSHPFFKNMDWELLERKQVTPPFKPRLDSDRDLANFPPEFTGEAVQLTPDDDHVIDNIDQSEFEGFEYVNPLLMSLEDCV
